Experimental data reported in the supplement of paper PMC4604168 (melanoma cell lines).
The list shows a part of the results. Repeats are few or missing, and single values can be far off.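 Cells were imaged in 1,536-well plates, and nuclei stained with an antibody against cleaved PARP were counted against all DNA-stained nuclei to give the apoptosis fraction. Screening doses were chosen to leave most cells alive, and resting and induced cleaved-PARP levels differ strongly between cell lines.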

Each compound was assayed on A2058 (assay: cleaved PARP positive nuclei fraction relative to DMSO control; melanoma cells; higher = more apoptosis). Settings: library dose: low library concentration; 72 h.

SMILES	cleaved PARP positive nuclei fraction [%]
Cc1cn(-c2cc(NC(=O)c3ccc(C)c(Nc4nccc(-c5cccnc5)n4)c3)cc(C(F)(F)F)c2)cn1 [nilotinib] + COc1cc(N2CCC(N3CCN(C)CC3)CC2)ccc1Nc1ncc(Cl)c(Nc2ccccc2S(=O)(=O)C(C)C)n1 [NVP-TAE684] (first compound 0.2 µM, partner dose 0.08 µM)	182
Cc1ccc(Nc2nccc(N(C)c3ccc4c(C)n(C)nc4c3)n2)cc1S(N)(=O)=O [Pazopanib] + O=C(Nc1ccccc1)c1cc([N+](=O)[O-])ccc1Cl [GW9662] (first compound 0.4 µM, partner dose 2 µM)	56.1
O=C(Nc1cc(C(F)(F)F)cc(C(F)(F)F)c1)c1cc(Cl)ccc1O + O=C(O)C(=O)Nc1sc2c(c1C(=O)O)CCNC2 [TCS401] (first compound 0.016 µM, partner dose 1.66667 µM)	63.7
